Laboratory results from paper PMC6957519, “NLRP6 self-assembles into a linear molecular platform following LPS binding and ATP stimulation” (Scientific Reports, 2020).
Results are given in words; binding and its absence hold for the method and conditions named.

Key:
[1] = biological target: Recombinant full-length human NLRP6 (1–892) (human) (UniProt P59044); experiment: condition: only monomer preparation, without added LPS; negative-stain electron microscopy with 3D reconstruction; NLRP6 monomer preparation, no ligand added; 16128 particles; EMAN and EMAN2; both purified
[2] = biological target: Recombinant full-length human NLRP6 (1–892) (human) (UniProt P59044); experiment: condition: only in 20 mM MES pH 6.5, 0.5 M NaCl, 5% glycerol, 0.2-0.5 M Arginine, without added LPS; SEC; NLRP6 alone, no ligand added; buffer 20 mM MES pH 6.5, 0.5 M NaCl, 5% glycerol, 0.2-0.5 M Arginine; analytical gel filtration; both purified
[3] = biological target: Recombinant full-length human NLRP6 (1–892) (human) (UniProt P59044); experiment: SEC; NLRP6 monomer incubated with ATP, without LPS; Superdex 200; both purified

B1: Recombinant full-length human NLRP6 (1–892) (natural protein, UniProt P59044 1-892, looked up)
chain: MDQPEAPCSSTGPRLAVARELLLAALEELSQEQLKRFRHKLRDVGPDGRSIPWGRLERADAVDLAEQLAQFYGPEPALEVARKTLKRADARDVAAQLQERRLQRLGLGSGTLLSVSEYKKKYREHVLQLHARVKERNARSVKITKRFTKLLIAPESAAPEEAMGPAEEPEPGRARRSDTHTFNRLFRRDEEGRRPLTVVLQGPAGIGKTMAAKKILYDWAAGKLYQGQVDFAFFMPCGELLERPGTRSLADLILDQCPDRGAPVPQMLAQPQRLLFILDGADELPALGGPEAAPCTDPFEAASGARVLGGLLSKALLPTALLLVTTRAAAPGRLQGRLCSPQCAEVRGFSDKDKKKYFYKYFRDERRAERAYRFVKENETLFALCFVPFVCWIVCTVLRQQLELGRDLSRTSKTTTSVYLLFITSVLSSAPVADGPRLQGDLRNLCRLAREGVLGRRAQFAEKELEQLELRGSKVQTLFLSKKELPGVLETEVTYQFIDQSFQEFLAALSYLLEDGGVPRTAAGGVGTLLRGDAQPHSHLVLTTRFLFGLLSAERMRDIERHFGCMVSERVKQEALRWVQGQGQGCPGVAPEVTEGAKGLEDTEEPEEEEEGEEPNYPLELLYCLYETQEDAFVRQALCRFPELALQRVRFCRMDVAVLSYCVRCCPAGQALRLISCRLVAAQEKKKKSLGKRLQASLGGGSSSQGTTKQLPASLLHPLFQAMTDPLCHLSSLTLSHCKLPDAVCRDLSEALRAAPALTELGLLHNRLSEAGLRMLSEGLAWPQCRVQTVRVQLPDPQRGLQYLVGMLRQSPALTTLDLSGCQLPAPMVTYLCAVLQHQGCGLQTLSLASVELSEQSLQELQAVKRAKPDLVITHPALDGHPQPPKELISTF
notes: NLRP6, human, full length, residues 1-892; Number of copies depends on the condition: monomer in the arginine buffer, dimer with LPS, tetramer, hexamer and longer linear oligomers with LPS and ATP; also called NLRP6 monomer; NLRP6 dimer; not shown: His-tag, N-terminal, cleaved; MBP, N-terminal, cleaved
Question: With B1 as the binder, how does the binding [1] read?
Answer: no binding

Question: And the binding [2]?
Answer: no binding

Question: And the binding [3]?
Answer: no binding (condition: with ATP, without LPS)
